Data published in patent US20100028406A1, “TOPICAL DRUG DELIVERY BY IONTOPHORESIS” (UNIVERSITE DE GENEVE, priority 2005, published 2010).
Some of these results come from one statement about several compounds together.

Assay: Passive delivery across porcine skin in vitro
Type: in vitro ADME
Settings: 10 mM VCV.HCl in water or 2 mM ACV in 2 mM NaCl; estimated from limit of detection

CC(C)[C@H](N)C(=O)OCCOCn1cnc2c(=O)[nH]c(N)nc21 [VCV, valaciclovir]
passive flux: < 1 nmol/cm^2/h

Nc1nc2c(ncn2COCCO)c(=O)[nH]1 [ACV, acyclovir]
passive flux: < 1 nmol/cm^2/h
